# Results reported in article PMC6614423, “Noxa mitochondrial targeting domain induces necrosis via VDAC2 and mitochondrial catastrophe” (Cell Death & Disease, 2019).
# Sequences of proteins named here, by UniProt entry; tags and fusion partners are left off.
# UniProt P21796: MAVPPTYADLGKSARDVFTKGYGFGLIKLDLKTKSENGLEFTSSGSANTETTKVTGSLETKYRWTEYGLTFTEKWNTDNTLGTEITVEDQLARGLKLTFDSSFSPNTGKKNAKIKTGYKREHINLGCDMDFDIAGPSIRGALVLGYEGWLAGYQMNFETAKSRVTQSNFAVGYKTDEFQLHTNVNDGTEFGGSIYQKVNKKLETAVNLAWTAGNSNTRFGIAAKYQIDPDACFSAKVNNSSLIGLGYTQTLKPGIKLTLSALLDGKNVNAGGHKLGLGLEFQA
# No constants are given. Whether binding was seen depends on the method and setting. Binding seen in cells or lysates may run through a third protein. Some binding calls cover weakened binding; strength is not graded here. Sequences can lack the tags named with a protein.
# Tests used:
# GFP-Noxa (41-54) = target: T1, GFP-Noxa (41-54) (UniProt Q13794); assay: co-IP; 293 HEK cells cotransfected with GFP-Noxa and VDAC-Flag plasmids; immunoprecipitation with anti-GFP antibody, immunoblot with anti-Flag
# T1 sequence: KLLNLISKLFCSGT
# GFP-Noxa (1-54) = target: T2, GFP-Noxa (1-54) (UniProt Q13794); assay: as above
# T2 sequence: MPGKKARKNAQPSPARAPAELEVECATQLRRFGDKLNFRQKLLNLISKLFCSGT
substance,measurement,setting,value
VDAC1-Flag (from UniProt P21796 1-283),binding,GFP-Noxa (41-54),binds
same,binding,GFP-Noxa (1-54),binds
